Experimental data taken from PubChem BioAssay AID540276 (National Center for Advancing Translational Sciences (NCATS), 2011).
Among all 300,000 compounds or so, about 5,400 (1.8%) were called active. The shares of active, inactive and inconclusive entries below differ from those in the screen. Calls follow the shape of the full dose curve; tested in HEK293 cells. Potencies of inconclusive entries are doubtful fits and often do not repeat.

experiment: qHTS for inhibitors of binding or entry into cells for Marburg Virus; details: Marburg virus pseudotyped entry inhibition, cell reporter; activity change, negative = inhibition: at 37.8 µM (top of the series) unless noted
% is scaled to controls: 0 for no effect and ±100 for the full control effect; potency is read from the fitted curve at half-maximal effect.

| Compound | Potency | activity change, negative = inhibition |
| --- | --- | --- |
| O=[N+]([O-])c1cc(Cl)cc2c1nc(NCCO)c1ccccc12 | inconclusive: 11.2 µM [inhibitor, partial curve, poor fit] |  |
| Cc1cc(Br)ccc1S(=O)(=O)n1ccnc1C | inactive |  |
| NCCNC(=O)c1ccc(Cl)cc1 | inconclusive: 5.01 µM [inhibitor, full curve] |  |
| C[C@H](NC(C)(C)C)C(=O)c1cccc(Cl)c1 | inactive |  |
| COc1ccc(C(=O)Nc2cc(C(F)(F)F)ccc2-n2cnc3ccccc32)cc1 | inconclusive: 5.62 µM [inhibitor, partial curve, poor fit] |  |
| O=C(Nc1cccc(OCC(=O)N2CCOCC2)c1)C1CCCCC1 | inconclusive: 0.092 µM [activator, partial curve, poor fit] |  |
| CC(=O)N1N=C(c2ccncc2)CC1c1ccccc1O (centres undefined) | inconclusive: 3.55 µM [activator, single point] |  |
| CCOC(=O)c1c(-c2ccccc2)csc1NC(=O)c1cc(-c2ccc(Br)cc2)on1 | inconclusive: 35.5 µM [inhibitor, single point] |  |
| Cc1ccn2c(/C=N/OCc3ccc(F)cc3)c(-c3ccc(Cl)cc3)nc2c1 | inconclusive: 1.58 µM [activator, partial curve, poor fit] |  |
| CCOc1cc(/C=C2\COc3ccccc3C2=O)cc(Br)c1OCC(=O)N(C)C | inconclusive: 11.2 µM [inhibitor, partial curve, poor fit] |  |
| Cc1cccc(N2C(=O)c3cccc4c(N5CCCCC5)c([N+](=O)[O-])cc(c34)C2=O)c1C | inconclusive: 3.16 µM [inhibitor, full curve, poor fit] |  |
| Cc1ccn2c(Nc3ccc4c(c3)OCO4)c(-c3ccc(N(C)C)cc3)nc2c1 | inconclusive: 5.62 µM [activator, full curve] |  |
| Cc1nnc(SCc2cc(=O)[nH]c(/N=C(\N)Nc3ccccc3Sc3ccccc3)n2)s1 | inconclusive: 35.5 µM [inhibitor, single point] |  |
| N#CC1=C(N)OC2=C(C(=O)CCC2)[C@@]12C(=O)N(CC(N)=O)c1ccccc12 | inconclusive: 1.26 µM [inhibitor, partial curve, poor fit] |  |
| Cc1cc(C(=O)OCC(=O)Nc2cccc(S(=O)(=O)N(C)C)c2)c2ccccc2n1 | inconclusive: 3.16 µM [inhibitor, single point] |  |
| Nc1nc2sc3c(c2c(=O)s1)CCCC3 | inactive |  |
| COc1ccc(/C=C2\SC(=S)N(Cc3cccnc3)C2=O)cc1C | inconclusive: 0.708 µM [activator, partial curve, poor fit] |  |
| CCCCOc1cccc(C(=O)Nc2ccc(NC(=O)c3ccco3)cc2)c1 | inactive |  |
| O=C(COC(=O)c1ccco1)NCC1CCCO1 (centres undefined) | inconclusive: 5.62 µM [activator, partial curve, poor fit] |  |
| O=C(Nc1cccc(F)c1)Nc1ccc2c(c1)CCC2 | inconclusive: 0.891 µM [activator, full curve, poor fit] |  |
| Cc1nc(Nc2ccc(Cl)cc2)cc(-c2ccccc2)n1 | inactive |  |
| COc1cc(C=O)ccc1OCc1ccc(Cl)nc1 | inconclusive: 1.58 µM [activator, partial curve, poor fit] |  |
| CCc1ccc[n+](-c2[nH]c(=O)sc2/C=N/N=C(\[O-])c2cccnc2)c1 | inconclusive: 6.31 µM [activator, single point] |  |

| Compound | Potency | activity change, negative = inhibition |
| --- | --- | --- |
| CCOc1ccc(NC(=O)CC2C(=O)N(c3ccccc3)C(=O)N2C2CCCCC2)cc1 (centres undefined) | inactive |  |
| CC1CCCCN1C(=O)COc1ccc(F)cc1 (centres undefined) | inactive |  |
| C=CCn1c(O)c(C(C)=NCc2cccnc2)c(=O)[nH]c1=O | inactive |  |
| COc1cc(OC)cc(C(=O)Oc2c(CN3CCOCC3)cc(Cl)c3cccnc23)c1 | inactive |  |
| O=C(CC1NCCNC1=O)OCc1ccccc1 (centres undefined) | inactive |  |
| COc1ccc(N2CCN(C(CNC(=O)c3cccc(Cl)c3)c3cccnc3)CC2)cc1 (centres undefined) | inactive |  |
| N/C(=N\c1nc2ccccc2o1)NC(=O)c1ccc(Cl)cc1 | inconclusive: 3.26 µM [inhibitor, partial curve, poor fit] |  |
| N#CCC(=O)Nc1ccc(C(=O)OCC(=O)Nc2ccc3ccccc3c2)cc1 | inconclusive: 2 µM [inhibitor, full curve, poor fit] |  |
| CCn1c(C)c(C)c2cc(C(=O)NCCCN3CCCCC3)ccc21 | inconclusive: 2.24 µM [inhibitor, full curve] |  |
| CCOC(=O)C1(Cc2ccccc2C)CCCN(S(=O)(=O)c2cccnc2)C1 (centres undefined) |  | inconclusive: 5.75% [activator] [at 46.1 µM] |
| COc1ccccc1OC(C)C(=O)Nc1c(C(=O)c2ccc(Cl)cc2)oc2ccccc12 (centres undefined) | inactive |  |
| CCc1ccc(NC(=O)c2ccccc2SC)cc1 | inactive |  |
| Cc1nc(N2CCN(C(=O)c3cccs3)CC2)c2c3c(sc2n1)CCCC3 | inactive |  |
| CC1(C)CC(=O)C2=C(C1)OC(N)=C(C#N)C2C#Cc1ccccc1 (centres undefined) | inconclusive: 0.0891 µM [inhibitor, full curve, poor fit] |  |
| COC(=O)c1ccc(-n2c(CCC(=O)O)ccc2-c2ccc(C)cc2)cc1 | inactive |  |
| Cc1c(Cl)cccc1NC(=O)c1noc2c1CCCC2 | inconclusive: 3.55 µM [activator, single point] |  |
| CC1CCc2c(sc(/N=C/c3cccnc3)c2C(N)=O)C1 (centres undefined) | inactive |  |
| Fc1ccccc1OCCSc1nc2ccccc2o1 | inconclusive: 5.62 µM [activator, single point] |  |
| O=C(c1ccc(O)cc1)c1ccc(O)cc1O | inconclusive: 12.6 µM [inhibitor, partial curve, poor fit] |  |
| Fc1cccc(Oc2nc3ccccc3n3cccc23)c1 | inactive |  |
| COc1ccc(C(=O)N2CCc3[nH]nc(-c4ccccc4)c3C2)cc1 | inactive |  |
| COC(=O)CSc1nnc2n(C3CCCCC3)c(=O)c3c4c(sc3n12)CCCC4 | inconclusive: 29.1 µM [inhibitor, single point] |  |
| O=C(c1ccc(Cl)cc1)N1CCn2c1nc1ccccc12 | inconclusive: 2.82 µM [activator, full curve] |  |

| Compound | Potency | activity change, negative = inhibition |
| --- | --- | --- |
| O=C(Nc1ccc(C(F)(F)F)cc1)c1cccnc1N1CCOCC1 | inconclusive: 29.1 µM [inhibitor, single point] |  |
| O=C(Nc1cccc(F)c1)C1CCN(C(=O)c2ccc(Cl)cc2)CC1 | inconclusive: 1.26 µM [inhibitor, single point] |  |
| COC(=O)c1ccc(/C=N/Nc2nc(C)c(C)s2)cc1 | inconclusive: 3.55 µM [activator, partial curve, poor fit] |  |
| Cc1cc(C)c(OCCCCN(C)C)c(Br)c1 | inconclusive: 1.26 µM [activator, partial curve, poor fit] |  |
| CCC(=O)Nc1ccc2nc(SCCOc3ccccc3)sc2c1 | inconclusive: 6.31 µM [inhibitor, single point] |  |
| CC1CC(C)CN(C(=O)c2ccc3c(=O)n(Cc4ccc5c(c4)OCO5)c(=S)[nH]c3c2)C1 (centres undefined) | inactive |  |
| Cc1ccc(NC(=O)Cn2ccc([N+](=O)[O-])n2)cc1C | inactive |  |
| CCC(C)(C)NC(=O)C(c1ccc(OC)cc1)N(Cc1ccco1)C(=O)CCC(=O)Nc1cc(C)on1 (centres undefined) | inconclusive: 10 µM [inhibitor, partial curve, poor fit] |  |
| CC(C)CC[n+]1ccccc1/C=C/c1ccc(N(C)C)cc1 | inconclusive: 2.24 µM [inhibitor, full curve, poor fit] |  |
| CC(C)N(CC(N)=O)C(=O)c1sc2cc(F)ccc2c1Cl | inconclusive: 5.62 µM [activator, single point] |  |
| CCc1cccc2c(C(=O)CCl)c[nH]c12 | inconclusive: 10 µM [inhibitor, partial curve, poor fit] |  |
| O=C(c1cccnc1)c1cccnc1 | inconclusive: 0.501 µM [activator, full curve] |  |
| CN1CCN(C2=Cc3cc(Cl)ccc3Sc3cc(F)ccc32)CC1 | inconclusive: 11.2 µM [inhibitor, partial curve, poor fit] |  |
| Cc1nn(-c2ccc(Cl)cc2)c2[nH]c(=O)c(CNCc3ccc4c(c3)OCO4)cc12 | inconclusive: 12.6 µM [inhibitor, single point] |  |
| CN(C)c1ccc(/C=C(/NC(=O)c2ccccc2)C(=O)N/N=C/c2ccc([N+](=O)[O-])c(O)c2)cc1 | inactive |  |
| Cc1cc2oc(=O)cc(CN3CCCc4ccccc43)c2cc1C | inconclusive: 35.5 µM [inhibitor, single point] |  |
| O=C(N/N=C/c1cn(-c2ccccc2)nc1-c1cccnc1)c1ccccc1 | inconclusive: 35.5 µM [inhibitor, single point] |  |
| Cc1c(NC(=O)COC(=O)c2ccccc2Cl)c(=O)n(-c2ccccc2)n1C | inconclusive: 17.8 µM [inhibitor, single point] |  |
| CCOC(=O)C(O)C1CCc2c([nH]c3ccc(C)cc23)C1=O (centres undefined) | inconclusive: 35.5 µM [activator, single point] |  |
| CC1=[N+]([O-])C(C)(C)C(c2ccc(Br)cc2)=[N+]1[O-] | inconclusive: 0.355 µM [inhibitor, partial curve, poor fit] |  |
| Cc1cc(NC(NC(=O)c2ccco2)(C(F)(F)F)C(F)(F)F)no1 | inactive |  |
| CCC(C)NC(=O)CSc1c2c(nc3ccccc13)CCCC2 (centres undefined) | inconclusive: 29.1 µM [inhibitor, single point] |  |
| CCCCCCCC(O)CC(CC1CCCCC1)C(=O)NN (centres undefined) | inconclusive: 29.1 µM [activator, partial curve, poor fit] |  |

Among those listed so far, these contain a cyano group:

| Compound | Potency | activity change, negative = inhibition |
| --- | --- | --- |
| N#CC1=C(N)OC2=C(C(=O)CCC2)[C@@]12C(=O)N(CC(N)=O)c1ccccc12 | inconclusive: 1.26 µM [inhibitor, partial curve, poor fit] |  |
| N#CCC(=O)Nc1ccc(C(=O)OCC(=O)Nc2ccc3ccccc3c2)cc1 | inconclusive: 2 µM [inhibitor, full curve, poor fit] |  |
| CC1(C)CC(=O)C2=C(C1)OC(N)=C(C#N)C2C#Cc1ccccc1 (centres undefined) | inconclusive: 0.0891 µM [inhibitor, full curve, poor fit] |  |
